PubChem BioAssay AID504774 – Drosophila RNAi Screening Center – 2011
The screen tested about 23,000 reagents; this is a random part of those that have a named target and a result. 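Values are quantile-normalised luminescence on an arbitrary scale; higher means more cells surviving MMS.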 Names joined by + are all predicted targets of the reagent. Not all columns of the deposit are shown.

- Test: 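Genes required for cells to withstand methyl methanesulphonate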 (primary screen)
- System: Drosophila Kc167 cells
- Reagent: long dsRNA against Drosophila genes, about 0.25 µg dsRNA per well
- Time to read-out: about 6 days: 3 days knock-down, then 3 days with or without MMS
- Conditions: methyl methanesulphonate 0.004% (w/v) for 3 days after knock-down
- Measurement: 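Viability in wells given MMS, read as ATP luminescence, normalised by quantiles plate by plate and averaged across replicates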
- Reading the numbers: mean viability with MMS and viability with MMS: higher = more surviving cells after MMS

Silencing of Pdk (Pyruvate dehydrogenase kinase) [DRSC07504] resulted in: mean viability with MMS 3.70e6; viability with MMS, replicate 1 = 4.27e6.
With knock-down of CG32260 [DRSC08084] the results were mean viability with MMS 3.67e6; viability with MMS, replicate 1 = 4.27e6.
After knock-down of CG14300 [DRSC14779], the record shows mean viability with MMS 3.49e6; viability with MMS, replicate 1 = 3.83e6.
Knock-down of RpL29 (Ribosomal protein L29) [DRSC04650] gave: mean viability with MMS 3.58e6; viability with MMS, replicate 1 = 4.08e6.
Against Fic (Fic domain-containing protein) [DRSC03247] the deposit lists mean viability with MMS 3.54e6; viability with MMS, replicate 1 = 3.97e6.
Frq1 (Frequenin 1) [DRSC19961] gave mean viability with MMS 3.55e6; viability with MMS, replicate 1 = 4.00e6.
CG11883 [DRSC06094] scored mean viability with MMS 3.46e6; viability with MMS, replicate 1 = 3.88e6.
With knock-down of CG42262 (retired record) [DRSC17628] the results were mean viability with MMS 3.68e6; viability with MMS, replicate 1 = 4.19e6.
After knock-down of CG42262 (retired record) [DRSC17974], the record shows mean viability with MMS 3.73e6; viability with MMS, replicate 1 = 4.20e6.
Silencing of CG7341 [DRSC10818] resulted in: mean viability with MMS 3.63e6; viability with MMS, replicate 1 = 4.03e6.
MKP-4 (MAPK Phosphatase 4) [DRSC19567] gave mean viability with MMS 3.66e6; viability with MMS, replicate 1 = 4.23e6.
Depletion of CG7706 [DRSC16295] gave: mean viability with MMS 3.52e6; viability with MMS, replicate 1 = 4.10e6.
Silencing of Ugt303B2 (UDP-glycosyltransferase family 303 member B2) [DRSC14198] resulted in: mean viability with MMS 3.42e6; viability with MMS, replicate 1 = 3.74e6.
Knock-down of Ugt303B2 (UDP-glycosyltransferase family 303 member B2) [DRSC22864] gave: mean viability with MMS 3.24e6; viability with MMS, replicate 1 = 3.91e6.
bigmax [DRSC15481] gave mean viability with MMS 3.48e6; viability with MMS, replicate 1 = 3.88e6.
With knock-down of Fad2 [DRSC11165], the screen gave mean viability with MMS 3.30e6; viability with MMS, replicate 1 = 3.64e6.
CG9795 [DRSC12336] showed mean viability with MMS 3.49e6; viability with MMS, replicate 1 = 3.89e6.
Against CG15425 [DRSC00440] the deposit lists mean viability with MMS 3.60e6; viability with MMS, replicate 1 = 4.01e6.
Knock-down of CG31058 (retired record) [DRSC15840] resulted in: mean viability with MMS 3.19e6; viability with MMS, replicate 1 = 3.57e6.
Knock-down of CG31058 (retired record) [DRSC22987] gave: mean viability with MMS 3.56e6; viability with MMS, replicate 1 = 4.08e6.
CG17198 + CG17197 [DRSC15190] showed mean viability with MMS 3.52e6; viability with MMS, replicate 1 = 4.01e6.
After knock-down of CG17198 + CG17197 [DRSC15191], the record shows mean viability with MMS 3.66e6; viability with MMS, replicate 1 = 4.25e6.
Knock-down of CG13300 [DRSC09974] resulted in: mean viability with MMS 3.22e6; viability with MMS, replicate 1 = 3.59e6.
For VAChT + ChAT [DRSC13312], the values are mean viability with MMS 3.44e6; viability with MMS, replicate 1 = 3.87e6.
Knock-down of GlcAT-S (Glucuronyltransferase S) [DRSC02731] resulted in: mean viability with MMS 3.52e6; viability with MMS, replicate 1 = 4.11e6.
After knock-down of CG11403 [DRSC18532], the record shows mean viability with MMS 3.19e6; viability with MMS, replicate 1 = 3.72e6.
With knock-down of mthl10 (methuselah-like 10) [DRSC08504], the screen gave mean viability with MMS 3.67e6; viability with MMS, replicate 1 = 4.06e6.
With knock-down of mthl10 (methuselah-like 10) [DRSC08505], the record shows mean viability with MMS 3.58e6; viability with MMS, replicate 1 = 4.06e6.
With knock-down of unc-45 (uncoordinated 45) [DRSC15449] the results were mean viability with MMS 3.55e6; viability with MMS, replicate 1 = 4.05e6.
Against TwdlT (TweedleT) [DRSC16677] the deposit lists mean viability with MMS 3.73e6; viability with MMS, replicate 1 = 4.31e6.
Silencing of TwdlT (TweedleT) [DRSC21540] gave: mean viability with MMS 3.48e6; viability with MMS, replicate 1 = 3.96e6.
Silencing of CG15873 [DRSC04277] gave: mean viability with MMS 3.56e6; viability with MMS, replicate 1 = 4.02e6.
For Cp16 (Chorion protein 16) [DRSC11119] the deposit lists mean viability with MMS 3.58e6; viability with MMS, replicate 1 = 4.08e6.
Against CG8613 [DRSC07222], the entry reads mean viability with MMS 3.53e6; viability with MMS, replicate 1 = 3.97e6.
Against CG13891 [DRSC08361] the deposit lists mean viability with MMS 3.59e6; viability with MMS, replicate 1 = 4.03e6.

Part of the list above in another layout:
predicted target,dsRNA,mean viability with MMS,"viability with MMS, replicate 1"
bigmax,DRSC15481,3.48e6,3.88e6
Fad2,DRSC11165,3.30e6,3.64e6
CG9795,DRSC12336,3.49e6,3.89e6
CG15425,DRSC00440,3.60e6,4.01e6
